Experimental data reported in article PMC9241942 (Microbiology Spectrum, 2022).

Test: Recovery of vancomycin standard spiked into reference stool aliquots
Parameters: species or system human

## CN[C@H](CC(C)C)C(=O)N[C@H]1C(=O)N[C@@H](CC(N)=O)C(=O)N[C@H]2C(=O)N[C@H]3C(=O)N[C@H](C(=O)N[C@H](C(=O)O)c4cc(O)cc(O)c4-c4cc3ccc4O)[C@H](O)c3ccc(c(Cl)c3)Oc3cc2cc(c3O[C@@H]2O[C@H](CO)[C@@H](O)[C@H](O)[C@H]2O[C@H]2C[C@](C)(N)[C@H](O)[C@H](C)O2)Oc2ccc(cc2Cl)[C@H]1O [vancomycin]
1 μg spiked, mean of aliquots A1-A3
  Recovery (mean ± SD, %): 110 ± 10%
10 μg spiked, mean of aliquots A4-A6
  Recovery (mean ± SD, %): 85 ± 5%
50 μg spiked, mean of aliquots A7-A9
  Recovery (mean ± SD, %): 88 ± 5%
150 μg spiked, mean of aliquots A10-A12
  Recovery (mean ± SD, %): 93 ± 1%
